{"source": "the supplement of paper PMC8975748", "note": "Counter-ions that a name gives are not always drawn. ± gives the standard deviation of the averaged measurements. The list shows a part of the results. Values are raw readings; no control value is given beside them.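 The yeast community starts from one strain carrying four plasmids, each with an amino-acid or uracil synthesis gene and a fluorescent protein. Random plasmid loss creates mixed prototroph and auxotroph subpopulations. Cells were fixed and counted by automated confocal fluorescence imaging, and DMSO-treated wells served as the vehicle reference.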", "data": [{"tested_on": "Saccharomyces cerevisiae BY4741 SeMeCo community", "assay": "imaged cell count per well (cells); higher = more cells", "conditions": "10 µM; 24 h; SM minimal medium", "method": "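Same SeMeCo high-content imaging drug screen: Selleck FDA-approved drugs at 10 µM, 24 h in SM medium, 384-well plates, 3 replicates.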", "values": [{"smiles": "NC(=N\\CCCCCC/N=C(N)/N=C(\\N)Nc1ccc(Cl)cc1)/N=C(\\N)Nc1ccc(Cl)cc1", "note": "[Chlorhexidine diacetate]", "imaged cell count per well": "25700 ± 8300"}, {"smiles": "CCCOc1ccc(C(=O)OCCN(CC)CC)cc1N", "note": "[Proparacaine HCl]", "imaged cell count per well": "20600 ± 6400"}, {"smiles": "CC(C)NNC(=O)c1ccncc1", "note": "[Iproniazid]", "imaged cell count per well": "23200 ± 7300"}, {"smiles": "COC(=O)C1=C(C)NC(C)=C(C(=O)OC(C)(C)CN(C)CCC(c2ccccc2)c2ccccc2)C1c1cccc([N+](=O)[O-])c1", "note": "(stereo not given) [Lercanidipine hydrochloride]", "imaged cell count per well": "27300 ± 6200"}, {"smiles": "O=C(O)CCC(=O)c1ccc(-c2ccccc2)cc1", "note": "[Fenbufen]", "imaged cell count per well": "18700 ± 4600"}, {"smiles": "CS(=O)(=O)c1ccc([C@@H](O)[C@@H](CO)NC(=O)C(Cl)Cl)cc1", "note": "[Thiamphenicol]", "imaged cell count per well": "23300 ± 4000"}, {"smiles": "CCCOc1ccc2c(c1)CC[C@@H]1[C@@H]2CC[C@]2(C)[C@@H](OC)CC[C@@H]12", "note": "[Promestriene]", "imaged cell count per well": "22900 ± 4700"}, {"smiles": "CCCc1nc(C)c2c(=O)nc(-c3cc(S(=O)(=O)N4CCN(CC)CC4)ccc3OCC)[nH]n12", "note": "[Vardenafil HCl Trihydrate]", "imaged cell count per well": "19500 ± 2500"}, {"smiles": "C=C1CCN([C@H](C)[C@](O)(Cn2cncn2)c2ccc(F)cc2F)CC1", "note": "[Efinaconazole]", "imaged cell count per well": "5670 ± 790"}, {"smiles": "COc1ccc2cc([C@H](C)C(=O)O)ccc2c1", "note": "[Naproxen]", "imaged cell count per well": "14800 ± 4000"}, {"smiles": "CONC(=O)Nc1ccc(-c2sc3c(c2CN(C)C)c(=O)n(-c2ccc(OC)nn2)c(=O)n3Cc2c(F)cccc2F)cc1", "note": "[Relugolix]", "imaged cell count per well": "26700 ± 2700"}, {"smiles": "CC/C(=C(\\c1ccccc1)c1ccc(OCCN(C)C)cc1)c1ccccc1", "note": "[Tamoxifen]", "imaged cell count per well": "30100 ± 2500"}, {"smiles": "COc1cc(NS(=O)(=O)c2ccc(N)cc2)nc(OC)n1", "note": "[SulfadiMethoxine sodium]", "imaged cell count per well": "25300 ± 3900"}, {"smiles": "O=C(NCCN1CCOCC1)c1ccc(Cl)cc1", "imaged cell count per well": "24900 ± 6200"}, {"smiles": "CCn1cc(C(=O)O)c(=O)c2cc(F)c(N3CCN(C)CC3)cc21", "note": "[Pefloxacin Mesylate]", "imaged cell count per well": "24100 ± 5600"}, {"smiles": "O=C(Nc1ccc(Oc2ccc(Cl)cc2)c(Cl)c1)c1cc(I)cc(I)c1O", "note": "[Rafoxanide]", "imaged cell count per well": "30800 ± 2500"}, {"smiles": "CC(=O)OC(C)C[N+](C)(C)C", "note": "(stereo not given) [Methacholine chloride]", "imaged cell count per well": "19900 ± 4800"}, {"smiles": "COC(=O)C1=C(C)NC(C)=C(C(=O)OC)C1c1ccccc1[N+](=O)[O-]", "note": "[Nifedipine]", "imaged cell count per well": "17600 ± 3600"}, {"smiles": "CC1CCc2cc(F)cc3c(=O)c(C(=O)O)cn1c23", "note": "(stereo not given) [Flumequine]", "imaged cell count per well": "28200 ± 3200"}, {"smiles": "COC(=O)C1=C(C)NC(C)=C(C(=O)OCCN2CCN(C(c3ccccc3)c3ccccc3)CC2)C1c1cccc([N+](=O)[O-])c1", "note": "(stereo not given) [Manidipine]", "imaged cell count per well": "27600 ± 3300"}, {"smiles": "O=C(O)CCc1nc(-c2ccccc2)c(-c2ccccc2)o1", "note": "[Oxaprozin]", "imaged cell count per well": "21700 ± 7500"}, {"smiles": "CN(C)[C@@H]1C(O)=C(C(N)=O)C(=O)[C@@]2(O)C(O)=C3C(=O)c4c(O)cccc4[C@@](C)(O)[C@H]3C[C@@H]12", "note": "[Tetracycline HCl]", "imaged cell count per well": "27000 ± 3700"}, {"smiles": "Cc1nc2n(c(=O)c1CCN1CCC(c3noc4cc(F)ccc34)CC1)CCCC2", "note": "[Risperidone]", "imaged cell count per well": "25800 ± 3300"}, {"smiles": "CC1(C)S[C@@H]2[C@H](NC(=O)[C@H](C(=O)O)c3ccsc3)C(=O)N2[C@H]1C(=O)O", "note": "[Ticarcillin sodium]", "imaged cell count per well": "21900 ± 7200"}, {"smiles": "C[C@@H](c1nc(-c2ccc(C#N)cc2)cs1)[C@](O)(Cn1cncn1)c1cc(F)ccc1F", "note": "[Isavuconazole]", "imaged cell count per well": "4330 ± 1500"}, {"smiles": "CCCCCCCCCC(=O)CC(O)S(=O)(=O)O", "note": "(stereo not given) [Sodium Houttuyfonate]", "imaged cell count per well": "31000 ± 3900"}, {"smiles": "CCCCCCCCCCCCCCCC[N+](C)(C)C", "note": "[Cetrimonium Bromide (CTAB)]", "imaged cell count per well": "1270 ± 390"}, {"smiles": "CC(C)Cc1ccc(C(C)C(=O)O)cc1", "note": "(stereo not given) [Ibuprofen Lysine]", "imaged cell count per well": "22800 ± 950"}, {"smiles": "CCOc1ccc(NC(C)=O)cc1", "note": "[Phenacetin]", "imaged cell count per well": "18200 ± 1700"}, {"smiles": "CCC1(C)CC(=O)NC1=O", "note": "(stereo not given) [Ethosuximide]", "imaged cell count per well": "18500 ± 10000"}, {"smiles": "NNc1nncc2ccccc12", "note": "[Hydralazine HCl]", "imaged cell count per well": "23900 ± 3500"}, {"smiles": "c1ccc2[nH]c(-c3cscn3)nc2c1", "note": "[Thiabendazole]", "imaged cell count per well": "27200 ± 660"}, {"smiles": "C[N+]1(C)[C@@H]2C[C@@H](OC(=O)C(O)(c3cccs3)c3cccs3)C[C@H]1[C@@H]1O[C@@H]12", "note": "[Tiotropium Bromide hydrate]", "imaged cell count per well": "23400 ± 3100"}, {"smiles": "CO/N=C(\\C(=O)N[C@@H]1C(=O)N2C(C(=O)O)=C(CSC(=O)c3ccco3)CS[C@H]12)c1csc(N)n1", "note": "[Ceftiofur HCl]", "imaged cell count per well": "19000 ± 4400"}, {"smiles": "N[C@@H]1CCCCN(c2c(F)cc3c(=O)c(C(=O)O)cn(C4CC4)c3c2Cl)C1", "note": "[Besifloxacin HCl]", "imaged cell count per well": "21900 ± 2000"}]}]}
